Experimental data: patent US8772266B2, “Fungicide pyrazole carboxamides derivates” (Bayer Cropscience AG, priority 2009, dated 2014)
Some of these results come from one statement about several compounds together.

What was measured:
[1] = system: Alternaria solani; experiment: In vivo preventive test on Alternaria solani (tomato); conditions: 500 ppm of active ingredient, evaluated 7 days after inoculation
[2] = system: Botrytis cinerea; experiment: In vivo preventive test on Botrytis cinerea (beans); conditions: 100 ppm of active ingredient, evaluated 2 days after inoculation
[3] = system: Puccinia recondita; experiment: In vivo preventive test on Puccinia recondita (wheat); conditions: 500 ppm of active ingredient, evaluated 7-9 days after inoculation
[4] = system: Venturia inaequalis; experiment: In vivo preventive test on Venturia inaequalis (apple scab); conditions: 10 ppm of active ingredient, evaluated 10 days after inoculation
[5] = system: Sphaerotheca fuliginea; experiment: In vivo preventive test on Sphaerotheca fuliginea (cucumber), Example L; conditions: 500 ppm of active ingredient, evaluated 7 days after inoculation
[6] = system: Leptosphaeria nodorum; experiment: In vivo preventive test on Leptosphaeria nodorum (wheat); conditions: 500 ppm of active ingredient, evaluated 7-9 days after inoculation
[7] = system: Pyrenophora teres; experiment: In vivo preventive test on Pyrenophora teres (barley); conditions: 500 ppm of active ingredient, evaluated 7-9 days after inoculation

Row | SMILES | disease control [1] | disease control [2] | disease control [3] | disease control [4] | disease control [5] | disease control [6] | disease control [7]
1 | Cc1cccc(C)c1CN(C(=O)c1c(C(F)F)nn(C)c1F)C1CC1 [Example 108] | at least 70% | at least 90% | at least 70% | at least 70% | at least 70% | at least 70% | at least 70%
2 | CC(c1ccccc1OC(F)(F)F)N(C(=O)c1c(C(F)F)nn(C)c1F)C1CC1 (centres unmarked) [Example 91] | – | – | – | – | at least 70% | at least 70% | at least 70%
3 | Cn1nc(C(F)F)c(C(=O)N(C2CC2)C2CCCc3cccc(Br)c32)c1F (centres unmarked) [Example 97] | at least 70% | – | at least 70% | – | at least 70% | at least 70% | at least 70%
4 | Cn1nc(C(F)F)c(C(=O)N(Cc2c(C3CCCC3)ccc(F)c2F)C2CC2)c1F [Example 139] | at least 70% | at least 90% | at least 70% | at least 70% | at least 70% | at least 70% | at least 70%
5 | CC(c1ccccc1I)N(C(=O)c1c(C(F)F)nn(C)c1F)C1CC1 (single isomer, unassigned) [Example 22a] | – | – | at least 70% | – | at least 70% | at least 70% | at least 70%
6 | CC(c1cc(Br)cc(Br)c1)N(C(=O)c1c(C(F)F)nn(C)c1F)C1CC1 (racemic) [Example 106] | at least 70% | – | at least 70% | – | at least 70% | at least 70% | at least 70%
7 | Cn1nc(C(F)F)c(C(=O)N(C2CC2)C2CCOc3ccccc32)c1F (centres unmarked) [Example 86] | at least 70% | – | at least 70% | – | at least 70% | – | at least 70%
8 | Cn1nc(C(F)F)c(C(=O)N(Cc2cccc(-c3ccccc3)c2)C2CC2)c1F [Example 64] | at least 70% | – | at least 70% | at least 70% | at least 70% | at least 70% | at least 70%
9 | CCCCC(c1ccccc1)N(C(=O)c1c(C(F)F)nn(C)c1F)C1CC1 (centres unmarked) [Example 94] | at least 70% | – | at least 70% | – | at least 70% | – | at least 70%
10 | CC(c1ccccc1I)N(C(=O)c1c(C(F)F)nn(C)c1F)C1CC1 (single isomer, unassigned) [Example 22b] | at least 70% | – | – | – | – | – | –
11 | Cn1nc(C(F)F)c(C(=O)N(Cc2cccc(-c3ccccc3)c2)C2CC2)c1Cl [Example 67] | at least 70% | – | – | – | – | at least 70% | at least 70%
12 | CCCCC(c1ccc(C(F)(F)F)cc1)N(C(=O)c1c(C(F)F)nn(C)c1F)C1CC1 (centres unmarked) [Example 93] | at least 70% | – | – | – | at least 70% | – | at least 70%
13 | Cn1nc(C(F)F)c(C(=O)N(C2CC2)C2CCC(C)(C)c3ccccc32)c1F (centres unmarked) [Example 99] | at least 70% | at least 90% | at least 70% | at least 70% | at least 70% | – | at least 70%
14 | CC(c1cc(C(F)(F)F)ccc1Cl)N(C(=O)c1c(C(F)F)nn(C)c1F)C1CC1 (centres unmarked) [Example 96] | at least 70% | at least 90% | – | at least 70% | at least 70% | at least 70% | at least 70%
15 | CC1CC1N(Cc1ccccc1[Si](C)(C)C)C(=O)c1c(C(F)F)nn(C)c1F (centres unmarked) [Example 143] | at least 70% | – | at least 70% | at least 70% | at least 70% | – | at least 70%
16 | CCc1ccccc1CN(C(=O)c1c(C(F)F)nn(C)c1F)C1CC1C (centres unmarked) [Example 142] | at least 70% | at least 90% | at least 70% | at least 70% | at least 70% | – | at least 70%
17 | CC(C)c1ccc(F)cc1CN(C(=O)c1c(C(F)F)nn(C)c1F)C1CC1 [Example 135] | – | at least 90% | at least 70% | at least 70% | at least 70% | at least 70% | at least 70%

Row | SMILES | disease control [1] | disease control [2] | disease control [3] | disease control [4] | disease control [5] | disease control [6] | disease control [7]
18 | CC(c1cc(Cl)ccc1C(F)(F)F)N(C(=O)c1c(C(F)F)nn(C)c1F)C1CC1 (centres unmarked) [Example 101] | at least 70% | at least 90% | – | at least 70% | at least 70% | at least 70% | at least 70%
19 | Cn1nc(C(F)F)c(C(=O)N(Cc2cc(Br)c3c(c2Br)OCO3)C2CC2)c1F [Example 87] | at least 70% | – | at least 70% | – | at least 70% | at least 70% | at least 70%
20 | CC(C)c1ccccc1C(C)N(C(=O)c1c(C(F)F)nn(C)c1F)C1CC1 (centres unmarked) [Example 80] | – | – | at least 70% | at least 70% | at least 70% | at least 70% | at least 70%
21 | Cc1nn(C)c(F)c1C(=O)N(C1CC1)C(C)c1cc(Cl)cc(Cl)c1 (centres unmarked) [N-cyclopropyl-N-[1-(3,5-dichlorophenyl)ethyl]-5-fluoro-1,3-dimethyl-1H-pyrazole-4-carboxamide, reference compound] | – | less than 30% | – | – | – | – | –
22 | Cn1nc(C(F)F)c(C(=O)N(Cc2c(F)cccc2C2CCCC2)C2CC2)c1F [Example 137] | at least 70% | – | at least 70% | at least 70% | at least 70% | at least 70% | at least 70%
23 | CCCCC1Cc2ccccc2C1N(C(=O)c1c(C(F)F)nn(C)c1F)C1CC1 (centres unmarked) [Example 100] | at least 70% | – | at least 70% | – | at least 70% | at least 70% | at least 70%
24 | Cn1nc(C(F)F)c(C(=O)N(Cc2cccc(C(F)(F)F)c2Cl)C2CC2)c1F [Example 104] | – | – | at least 70% | – | at least 70% | at least 70% | at least 70%
25 | Cn1nc(C(F)F)c(C(=O)N(Cc2c(F)cccc2C2CC2)C2CC2)c1F [Example 130] | – | – | at least 70% | at least 70% | at least 70% | at least 70% | at least 70%
26 | Cc1cc(C)cc(C(C)N(C(=O)c2c(C(F)F)nn(C)c2F)C2CC2)c1 (single isomer, unassigned) [Example 46b] | at least 70% | – | – | – | – | – | –
27 | CC(C)c1ccccc1CN(C(=S)c1c(C(F)F)nn(C)c1F)C1CC1 [Example 131] | at least 70% | – | at least 70% | at least 70% | at least 70% | at least 70% | at least 70%
28 | CCc1cccc(F)c1CN(C(=O)c1c(C(F)F)nn(C)c1F)C1CC1 [Example 129] | – | at least 90% | at least 70% | at least 70% | at least 70% | at least 70% | at least 70%
29 | CC(c1ccccc1Br)N(C(=O)c1c(C(F)F)nn(C)c1F)C1CC1 (centres unmarked) [Example 98] | – | – | – | at least 70% | at least 70% | at least 70% | at least 70%
30 | CC(C)c1ccccc1CN(C(=O)c1c(C(F)F)nn(C)c1F)C1CC1C (centres unmarked) [Example 157] | at least 70% | – | at least 70% | at least 70% | at least 70% | – | at least 70%
31 | Cc1cccc2c1CCC2N(C(=O)c1c(C(F)F)nn(C)c1F)C1CC1 (racemic) [Example 102] | at least 70% | – | – | – | at least 70% | at least 70% | at least 70%
32 | CCc1ccccc1C(C)N(C(=O)c1c(C(F)F)nn(C)c1F)C1CC1 (centres unmarked) [Example 81] | – | at least 90% | at least 70% | at least 70% | at least 70% | at least 70% | at least 70%
33 | Cn1nc(C(F)F)c(C(=O)N(Cc2ccccc2C2CCCC2)C2CC2)c1F [Example 82] | – | at least 90% | at least 70% | at least 70% | at least 70% | at least 70% | at least 70%
34 | CC(c1cccc(I)c1)N(C(=O)c1c(C(F)F)nn(C)c1F)C1CC1 (centres unmarked) [Example 103] | at least 70% | – | at least 70% | – | at least 70% | at least 70% | at least 70%
